Data: patent US20060105385
The comparison behind a weaker result is the experiment's own reference, which may not be listed here.

Chains of the proteins cited; added tags and fusions are not shown. Chains listed by the source or under a name are the forms on record and can include a tag or linker.
hPXR-RXR heterodimer (human pregnane X receptor / retinoid X receptor), one chain, as listed by the source, chain 1 of 2: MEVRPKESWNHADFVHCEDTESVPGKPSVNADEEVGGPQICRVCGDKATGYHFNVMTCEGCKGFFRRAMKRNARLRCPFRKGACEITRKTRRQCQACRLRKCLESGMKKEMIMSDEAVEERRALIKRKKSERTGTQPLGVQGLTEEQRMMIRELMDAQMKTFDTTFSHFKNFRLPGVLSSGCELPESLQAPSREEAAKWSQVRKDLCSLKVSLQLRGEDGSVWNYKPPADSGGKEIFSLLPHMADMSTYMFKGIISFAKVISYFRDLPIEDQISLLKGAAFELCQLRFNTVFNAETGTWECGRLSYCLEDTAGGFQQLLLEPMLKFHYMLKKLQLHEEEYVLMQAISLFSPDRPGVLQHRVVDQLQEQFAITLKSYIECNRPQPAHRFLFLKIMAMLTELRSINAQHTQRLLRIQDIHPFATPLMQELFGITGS
hPXR-RXR heterodimer (human pregnane X receptor / retinoid X receptor), one chain, as listed by the source, chain 2 of 2: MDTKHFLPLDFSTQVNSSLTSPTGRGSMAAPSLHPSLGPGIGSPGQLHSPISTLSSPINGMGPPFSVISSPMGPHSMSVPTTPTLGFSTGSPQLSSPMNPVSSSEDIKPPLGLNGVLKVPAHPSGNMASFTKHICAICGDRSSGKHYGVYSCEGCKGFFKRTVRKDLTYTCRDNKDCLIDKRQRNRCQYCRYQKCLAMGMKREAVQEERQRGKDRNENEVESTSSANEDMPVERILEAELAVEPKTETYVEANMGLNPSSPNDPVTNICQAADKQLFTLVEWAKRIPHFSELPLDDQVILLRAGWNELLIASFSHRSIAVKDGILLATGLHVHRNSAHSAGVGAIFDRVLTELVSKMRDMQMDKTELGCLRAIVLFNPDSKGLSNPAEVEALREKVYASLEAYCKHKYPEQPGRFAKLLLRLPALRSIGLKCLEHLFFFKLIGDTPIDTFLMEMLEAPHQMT

System: hPXR-RXR heterodimer (human pregnane X receptor / retinoid X receptor)
Experiment: EMSA
Details: less affinity than XREM-DR3-1 or Prox-ER6; protein translated in vitro; label: 32P

Sequence: CCTTGAAATCATGTCGGTTCAAGC (double strand) [XREM-ER6]
- binding result: binds more weakly
